# Measured values reported in patent publication EP3783012A1 (priority 2019, dated 2021).
# HELM strings list residues between dots; [ac] is acetyl, [am] amide, other brackets name non-standard units.
# Assay: peptide made by a vendor (Fmoc solid-phase peptide synthesis)
# Settings: whole synthesis, reverse-phase HPLC
substance,measurement,value
PEPTIDE1{V.R.G.L.A.P.K.K.S.L.W.P.F.G.G.P.F.K.S.P.F.N}$$$$V2.0,final HPLC purity,95-99%
